From article PMC4053222
Results are given in words; binding and its absence hold for the method and conditions named. Binding seen in cells or lysates may run through a third protein. Some results given as binding are weak or reduced against the parent protein; the word gives no strength. Tags and fused reporters may be left off the sequences shown.

By UniProt entry, the sequences of proteins in these tests, tags left out.
UniProt P11166: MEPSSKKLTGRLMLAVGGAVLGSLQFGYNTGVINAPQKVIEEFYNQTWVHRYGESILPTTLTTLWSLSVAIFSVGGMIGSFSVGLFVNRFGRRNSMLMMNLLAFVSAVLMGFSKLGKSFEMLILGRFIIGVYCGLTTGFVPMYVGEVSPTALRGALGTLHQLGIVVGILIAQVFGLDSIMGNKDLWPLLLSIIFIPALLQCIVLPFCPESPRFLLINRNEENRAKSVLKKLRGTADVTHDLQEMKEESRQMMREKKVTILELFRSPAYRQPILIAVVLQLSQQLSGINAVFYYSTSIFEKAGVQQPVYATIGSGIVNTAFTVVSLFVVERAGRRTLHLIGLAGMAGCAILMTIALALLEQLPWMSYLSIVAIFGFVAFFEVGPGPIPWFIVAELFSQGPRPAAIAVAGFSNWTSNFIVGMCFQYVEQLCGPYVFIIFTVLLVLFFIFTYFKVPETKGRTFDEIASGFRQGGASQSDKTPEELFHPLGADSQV

Columns and labels:
[1] = target: T1, flag-NDRG2 (from pCMV-flag-NDRG2) (human) (UniProt Q9UN36); assay: co-IP; HEK293 cells cotransfected with pCMV-flag-NDRG2 and pCMV-eGFP-GLUT1; lysis buffer 150 mM NaCl, 50 mM Tris-HCl pH 7.4, 1% Lubrol, 5 mM EDTA, protease inhibitors; antibody with protein A or G sepharose, 8 hours at 4°C; immunoblot
T1 sequence: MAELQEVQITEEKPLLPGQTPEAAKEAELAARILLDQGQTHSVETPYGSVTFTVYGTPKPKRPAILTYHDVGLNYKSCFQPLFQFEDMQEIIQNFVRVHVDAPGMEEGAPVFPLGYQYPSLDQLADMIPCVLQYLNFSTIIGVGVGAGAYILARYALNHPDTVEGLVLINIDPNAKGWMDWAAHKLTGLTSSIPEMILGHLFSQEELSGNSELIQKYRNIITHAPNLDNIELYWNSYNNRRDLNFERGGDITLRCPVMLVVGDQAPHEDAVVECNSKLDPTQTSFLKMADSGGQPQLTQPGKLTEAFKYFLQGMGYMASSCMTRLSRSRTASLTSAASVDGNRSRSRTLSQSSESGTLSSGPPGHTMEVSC

[2] = target: T2, N-myc downstream-regulated gene 2 (NDRG2) protein, endogenous in SK-BR-3 cells (human (endogenous in SK-BR-3)) (UniProt Q9UN36); assay: co-IP; endogenous proteins in whole-cell lysates of untransfected SK-BR-3 cells; lysis buffer 150 mM NaCl, 50 mM Tris-HCl pH 7.4, 1% Lubrol, 5 mM EDTA, protease inhibitors; anti-GLUT1 or anti-NDRG2 antibody with protein A sepharose, 8 hours at 4°C; immunoblot
T2 sequence: T1 sequence

binding [1] | binding [2] | Substance
binds |  | eGFP-GLUT1 (from pCMV-eGFP-GLUT1) (from UniProt P11166 1-492)
 | binds | glucose transporter 1 (GLUT1), endogenous in SK-BR-3 cells (from UniProt P11166 1-492)
